The target in this assay is Rok-C^97-191 (C-terminal DNA binding domain of Rok, residues 97-191) (B. subtilis subsp. subtilis str. 168) (UniProt O34857). Kind of assay: SEC; gel filtration on a GE HiLoad 16/600 Superdex 75 preparation grade column; elution volumes compared with cytochrome C (12.4 kD) and the void volume; both purified. Background: In gel filtration, larger molecules generally elute earlier.

Results are given in words; binding and its absence hold for the method and conditions named.

Data on one molecule can be found in PMC6212790, “How bacterial xenogeneic silencer rok distinguishes foreign from self DNA in its resident genome” (Nucleic Acids Research, 2018).

B1: Rok-C^97-191 (C-terminal DNA binding domain of Rok, residues 97-191) (domain or fragment, UniProt O34857 97-191)
chain: AGIPDGTTRRRRGTARPGSKAAKLREAAIKTLKRHNAAIKSSELQKEIEKESGLEIPNMTTFMQSLIKMYPEVKKPYRGQYILEGEIESAESANE
Turning to B1, the binding entry is reported as “no binding”.
